{"source": "PubChem BioAssay AID2685", "about": "(National Center for Advancing Translational Sciences (NCATS), 2010)", "note": "Among all 320,000 compounds or so, about 2,100 (0.66%) were called active. The inconclusive results got no clear call from the source; some entries with a clear call stand among them for comparison. The call rests on the fitted dose curve; in most records, active means well fitted inhibition curve with a large enough effect in the signal ratio, with a control signal flat (not every such curve was filed as active); inconclusive means small, poorly fitted or top-dose-only effect, or effect the other way, or a change in a side signal; inactive means flat fitted curve, though single readings scatter; the % refers to the signal ratio. Potencies beside an inconclusive call are fits to weak or partial responses and may not hold up. On the % scale 0 is the no-effect control and ±100 the full control effect; potency means the concentration at half of the fitted maximal effect.", "data": [{"assay": "qHTS Assay for Lipid Storage Modulators in Drosophila S3 Cells", "conditions": "BODIPY lipid droplet fluorescence, 18-24 h, cells fed with added oleic acid; lipid storage change, negative = inhibition: at 46.1 µM (top of the series) unless noted", "procedure,_shortened": "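Drosophila S3 cells got compounds at several concentrations plus oleic acid (400 uM solution). Laser-scanning cytometry with 488 nm excitation read lipid droplets at 500-530 nm and cells at 575-640 nm. Percent activity was relative to 20 uM Triacsin C.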", "values": [{"smiles": "CCOc1ccccc1NC(=O)CSc1nc2c(c(=O)n(C)c(=O)n2C)n1C", "Potency": "inconclusive: 20.6 µM [falling, single point]"}, {"smiles": "CCOC(=O)C(C)/C(C)=N/NC(N)=S", "note": "(stereo unspecified)", "lipid storage change, negative = inhibition": "inconclusive: 190%"}, {"smiles": "COc1ccccc1C(=O)NC(=O)Nc1nc(-c2ccccc2)cc(C(F)(F)F)n1", "lipid storage change, negative = inhibition": "inconclusive: 21.9%"}, {"smiles": "Cc1cnn(-c2ccc3nnc(-c4ccc(Br)cc4)n3n2)c1", "Potency": "inconclusive: 2.91 µM [activator, full curve]"}, {"smiles": "Cc1ccccc1CSc1nnc(C)c(=O)n1N", "lipid storage change, negative = inhibition": "inconclusive: -17.5%"}, {"smiles": "Cc1cc(S(=O)(=O)NCc2ccco2)c(C)cc1Cl", "Potency": "inconclusive: 9.2 µM [activator, partial curve]"}, {"smiles": "CN(Cc1ccc(F)cc1)Cc1nc(-c2ccccc2)no1", "Potency": "inconclusive: 14.6 µM [activator, partial curve]"}, {"smiles": "CC1CCN(Cc2c(C(=O)N/N=C/c3ccc(C(C)(C)C)cc3)nnn2-c2nonc2N)CC1", "lipid storage change, negative = inhibition": "inconclusive: -70.9%"}, {"smiles": "O=C(NNC(=O)C1CCCCC1)c1ccncc1", "lipid storage change, negative = inhibition": "inconclusive: 65.2%"}, {"smiles": "NS(=O)(=O)c1ccc(NC(=S)N2CCN(C(=O)C3CCCO3)CC2)cc1", "note": "(stereo unspecified)", "Potency": "inconclusive: 20.6 µM [falling, partial curve, poor fit]"}, {"smiles": "O=C(Nc1ccccc1Cl)OC1CCCCC1", "lipid storage change, negative = inhibition": "inconclusive: 187%"}, {"smiles": "Cc1ccc(S(=O)(=O)N/N=C(\\c2ccccc2)C2CC2)cc1", "lipid storage change, negative = inhibition": "inconclusive: 9.14%"}, {"smiles": "CCN(CC)C(=S)SCC(=O)Nc1ccc(F)cc1", "lipid storage change, negative = inhibition": "inconclusive: 179%"}, {"smiles": "O=C1COc2ccc(S(=O)(=O)Nc3cccc(Cl)c3)cc2N1", "Potency": "inconclusive: 6.51 µM [activator, single point]"}, {"smiles": "O=C1Nc2cccnc2Sc2ccccc21", "lipid storage change, negative = inhibition": "inconclusive: -5.02%"}, {"smiles": "CSc1nnnn1-c1cccc(O)c1", "Potency": "inconclusive: 14.6 µM [activator, single point]"}, {"smiles": "O=C(O)c1ccc(N2C(=O)C3ON(c4ccccc4)C(c4ccccc4F)C3C2=O)cc1", "note": "(stereo unspecified)", "Potency": "inconclusive: 2.91 µM [falling, full curve, poor fit]"}, {"smiles": "Cc1[nH]c(=O)[nH]c(=O)c1S(=O)(=O)N1CCOCC1", "lipid storage change, negative = inhibition": "inconclusive: 42.8%"}, {"smiles": "Nc1c(Cl)ncnc1N/N=C/c1cccnc1", "lipid storage change, negative = inhibition": "inconclusive: 32.9%"}, {"smiles": "COc1ccc(-c2cnnc(N/N=C/c3ccc(-c4ccc([N+](=O)[O-])cc4)o3)n2)cc1", "lipid storage change, negative = inhibition": "inconclusive: 34.1%"}, {"smiles": "COc1ccc(-c2cc(=O)n(-c3nc4ccccc4[nH]3)[nH]2)cc1", "lipid storage change, negative = inhibition": "inconclusive: -38.2%"}, {"smiles": "COc1cc(/C=C/C(=O)N2CCC=CC2=O)cc(OC)c1OC", "Potency": "inconclusive: 20.6 µM [falling, single point]"}, {"smiles": "C/C(CCN1CCc2nc(-c3ccccc3)c(-c3ccccc3)cc2C1)=N\\O[C@@H](C)c1cc(-c2c(C)cc(C)cc2C)no1", "lipid storage change, negative = inhibition": "inconclusive: 0.33%"}, {"smiles": "CCOC(=O)C1=C(C)Nc2ccccc2N=C1NC(=O)CCCN1C(=O)c2ccccc2C1=O", "Potency": "inconclusive: 29.1 µM [activator, single point]"}, {"smiles": "CC(=O)N(CCc1ccccc1)Cc1cc2ccc(C)c(C)c2[nH]c1=O", "lipid storage change, negative = inhibition": "inconclusive: -9.62%"}, {"smiles": "Cc1ccc(NC2=C(C(=O)c3ccccc3)N(C)S(=O)(=O)c3ccccc32)cc1", "lipid storage change, negative = inhibition": "inconclusive: -23.5%"}, {"smiles": "O=C1C2C3C=CC(C2C(=O)N1c1ccc(O)cc1)C1C2C(=O)N(c4ccc(O)cc4)C(=O)C2C31", "note": "(stereo unspecified)", "lipid storage change, negative = inhibition": "inconclusive: -14.9%"}, {"smiles": "N#CCc1c(C#N)c(N)nc(N2CCN(c3ccc(F)cc3)CC2)c1C#N", "Potency": "inconclusive: 0.103 µM [activator, full curve, poor fit]"}, {"smiles": "O=C1CC2(CON=C2c2ccc(F)cc2)C(=O)N1c1ccc(F)cc1", "note": "(stereo unspecified)", "lipid storage change, negative = inhibition": "inconclusive: -48.8%"}, {"smiles": "Cc1ccnc2nc(C(=O)OCCOc3cccc(Br)c3)nn12", "lipid storage change, negative = inhibition": "inconclusive: -2.63%"}, {"smiles": "COc1ccc(-c2cn3ccccc3n2)cc1[N+](=O)[O-]", "lipid storage change, negative = inhibition": "inconclusive: 7.74%"}, {"smiles": "CCOC(=O)Cc1csc(SCC(=O)c2c(N)n(CC(C)C)c(=O)n(C)c2=O)n1", "Potency": "inconclusive: 4.61 µM [cytotoxic, partial curve]"}, {"smiles": "CCC(C)C(=O)Nc1ccc([N+](=O)[O-])cc1OC", "note": "(stereo unspecified)", "lipid storage change, negative = inhibition": "inconclusive: -31% [at 0.369 µM]"}, {"smiles": "Cc1ccc(S(=O)(=O)N2CCCC2)cc1[N+](=O)[O-]", "lipid storage change, negative = inhibition": "inconclusive: 15.9%"}, {"smiles": "CCc1nn(CC(=O)N(C)C2CCCCC2)c(=O)c2cc3cc(C)ccc3n12", "Potency": "inconclusive: 29.1 µM [activator, single point]"}, {"smiles": "Cc1ccc(NC(=O)COC(=O)CCOc2ccccc2C)cc1", "lipid storage change, negative = inhibition": "inconclusive: -6.55%"}, {"smiles": "COc1ccccc1NC(=O)/C(=C\\c1cccnc1)NC(=O)c1ccccc1", "lipid storage change, negative = inhibition": "inconclusive: 1.17%"}, {"smiles": "CC(=O)NCCc1nc2ccccc2n1Cc1ccc(Cl)cc1", "lipid storage change, negative = inhibition": "inconclusive: -10.7%"}, {"smiles": "Cc1cccc(C(=O)Nc2ccccc2C(=O)OCC(=O)Nc2ccc(C#N)cc2)c1", "lipid storage change, negative = inhibition": "inconclusive: 30.8%"}, {"smiles": "COCCN(C(=O)CSc1nnc(-c2ccc(C)c(C)c2)o1)c1c(N)n(CC(C)C)c(=O)[nH]c1=O", "lipid storage change, negative = inhibition": "inconclusive"}, {"smiles": "Nc1nc(SCC(=O)Nc2ncc(Cl)cc2Cl)n[nH]1", "Potency": "inconclusive: 29.1 µM [activator, single point]"}, {"smiles": "COC(=O)c1ccc(CN2CCCCC2)cc1", "lipid storage change, negative = inhibition": "inconclusive: -10.8%"}, {"smiles": "O=C(NC1CCCCC1)C1(S(=O)(=O)c2ccc(Cl)cc2)CC1", "lipid storage change, negative = inhibition": "inconclusive: -136%"}, {"smiles": "COc1ccc(N(CC(=O)NCCC2=CCCCC2)S(=O)(=O)c2ccccc2)c(OC)c1", "Potency": "inconclusive: 29.1 µM [falling, single point]"}, {"smiles": "Cc1cc(Cl)ccc1OCC(=O)N1CCCN(C(=O)COc2ccc(Cl)cc2C)CC1", "lipid storage change, negative = inhibition": "inconclusive: 15.1%"}, {"smiles": "CC(C)N1C(=O)C2C(C(=O)NCc3ccccc3)C3C=CC2(O3)C1C(=O)NC(C)(C)C", "note": "(stereo unspecified)", "lipid storage change, negative = inhibition": "inconclusive: -41.8%"}, {"smiles": "CN1c2ccccc2-c2nc3ccccc3n2C1c1ccccn1", "note": "(stereo unspecified)", "lipid storage change, negative = inhibition": "inconclusive: -38.3%"}, {"smiles": "N#CCCN(C(=O)COC(=O)C1=NNC(=O)CC1)c1ccccc1", "lipid storage change, negative = inhibition": "inconclusive"}, {"smiles": "COCCNC(=O)C1CC2Cn3c(nc4ccccc43)C2N1C", "note": "(stereo unspecified)", "lipid storage change, negative = inhibition": "inconclusive: 18%"}, {"smiles": "C/C(=N\\Nc1nc(N)cc(Cl)n1)c1cccc([N+](=O)[O-])c1", "Potency": "inconclusive: 14.6 µM [falling, partial curve, poor fit]"}, {"smiles": "CCCn1c(C2CCCN2c2nc(-c3cccc(Br)c3)cs2)nc2cc(Cl)c(Cl)cc21", "note": "(stereo unspecified)", "lipid storage change, negative = inhibition": "inconclusive: 35.8%"}, {"smiles": "Cc1cc(C)c(Cn2ncn(-c3ccc(Br)cc3)c2=O)c(C)c1", "Potency": "inconclusive: 29.1 µM [cytotoxic, single point]"}, {"smiles": "CCCCC(=O)NC(c1ccc(OC)c(OC)c1)c1c(O)ccc2ccccc12", "note": "(stereo unspecified)", "lipid storage change, negative = inhibition": "inconclusive: -21.6%"}, {"smiles": "COc1ccccc1N1CCN(c2ccnc3cc(Cl)ccc23)CC1", "lipid storage change, negative = inhibition": "inconclusive: -59.9%"}, {"smiles": "COc1ccc(C)cc1NC(=O)CNC(c1ccccc1)c1ccccc1", "lipid storage change, negative = inhibition": "inconclusive: 22.8%"}, {"smiles": "COc1cc(OC)cc(C(=O)Nc2ccn(C)n2)c1", "Potency": "inconclusive: 29.1 µM [activator, single point]"}, {"smiles": "O=C(Nc1ccc(S(=O)(=O)N2CCCCC2)cc1)c1ccco1", "lipid storage change, negative = inhibition": "inconclusive: 59.8%"}, {"smiles": "O=C(CCN1C(=O)/C(=C\\c2ccccc2)SC1=S)NNC(=O)c1ccccc1O", "lipid storage change, negative = inhibition": "inconclusive: -9.66%"}, {"smiles": "Cc1cc(C(=O)OCC(=O)N2CC(C)CC(C)C2)c(C)o1", "note": "(stereo unspecified)", "lipid storage change, negative = inhibition": "inconclusive: 20.5%"}, {"smiles": "Cc1ccc(C)c(NC(=O)COC(=O)c2c(C)nn(-c3ccccc3)c2C)c1", "Potency": "inconclusive: 29.1 µM [activator, single point]"}, {"smiles": "Cc1cc(-c2n[nH]c(=S)n2Cc2ccco2)n(C)n1", "lipid storage change, negative = inhibition": "inconclusive: 3.12%"}, {"smiles": "CCc1ccc(NC(=O)C/C(C)=N/NC(=O)OCc2ccc(OC)cc2)cc1", "lipid storage change, negative = inhibition": "inactive"}, {"smiles": "CCOCCCNC(=O)c1ccc(Cn2c(=O)[nH]c3ccsc3c2=O)cc1", "lipid storage change, negative = inhibition": "inconclusive: 4.77%"}, {"smiles": "Cc1cccc(NC(=O)c2ccc(Cl)c(S(=O)(=O)N3CCCC3)c2)n1", "lipid storage change, negative = inhibition": "inconclusive: -31%"}, {"smiles": "Cc1ccc(Cl)cc1N1CCN(C(c2ccc(C#N)cc2)c2nnnn2C2CCCC2)CC1", "note": "(stereo unspecified)", "lipid storage change, negative = inhibition": "inconclusive: 21.5%"}, {"smiles": "CN(C)CC1CCCCC1OC(=O)/C=C/c1ccccc1", "note": "(stereo unspecified)", "lipid storage change, negative = inhibition": "inconclusive: -16.3%"}, {"smiles": "CN(C)S(=O)(=O)c1ccc(Nc2nc(C3CC3)nc3c2nnn3Cc2ccccc2Cl)cc1", "Potency": "inconclusive: 16.4 µM [falling, single point]"}, {"smiles": "Cc1cc(C)cc(OCC(=O)N/N=C\\c2cn(C)nc2C)c1", "Potency": "inconclusive: 8.2 µM [activator, partial curve]"}, {"smiles": "O=C(N/N=C/c1ccccn1)c1ccc(Br)cc1", "lipid storage change, negative = inhibition": "inconclusive: -20%"}, {"smiles": "CCOC(=O)c1c(NC(=O)CSc2nnc(-c3cccc(C)c3)n2CC)sc(C(C)=O)c1C", "Potency": "inconclusive: 23.1 µM [falling, partial curve]"}, {"smiles": "CCCc1[nH]n(-c2ccc(F)cc2)c(=O)c1C=Nc1cccc(F)c1", "Potency": "inconclusive: 0.0731 µM [activator, full curve, poor fit]"}, {"smiles": "C=CCn1c(CCNC(=O)c2ccccc2F)nnc1SCC(=O)Nc1ccc(OC)cc1", "lipid storage change, negative = inhibition": "inconclusive: -20.5%"}, {"smiles": "Cc1ccccc1CNC(=O)CCNS(=O)(=O)c1ccc(OC(F)(F)F)cc1", "Potency": "inconclusive: 0.116 µM [falling, full curve, poor fit]"}, {"smiles": "CCOC(=O)C1CCN(C(=O)CCc2c(C)nc3c(-c4ccc(F)cc4)c(C)nn3c2C)CC1", "lipid storage change, negative = inhibition": "inactive"}, {"smiles": "Cc1ccc(C(=O)C(=S)N2CCOCC2)cc1", "lipid storage change, negative = inhibition": "inconclusive: -17.5%"}, {"smiles": "COC(=O)C(Cc1ccccc1)NC(=O)CNS(=O)(=O)c1ccc(Br)cc1", "note": "(stereo unspecified)", "lipid storage change, negative = inhibition": "inconclusive: 15.7%"}]}]}
